Test results as given in PMC7926356.
These are yes or no findings as the source states them, for the method shown. Binding seen in cells or lysates may run through a third protein. Some results given as binding are weak or reduced against the parent protein; the word gives no strength.

The chains behind the UniProt entries cited, without tags or fusion partners.
UniProt P15311: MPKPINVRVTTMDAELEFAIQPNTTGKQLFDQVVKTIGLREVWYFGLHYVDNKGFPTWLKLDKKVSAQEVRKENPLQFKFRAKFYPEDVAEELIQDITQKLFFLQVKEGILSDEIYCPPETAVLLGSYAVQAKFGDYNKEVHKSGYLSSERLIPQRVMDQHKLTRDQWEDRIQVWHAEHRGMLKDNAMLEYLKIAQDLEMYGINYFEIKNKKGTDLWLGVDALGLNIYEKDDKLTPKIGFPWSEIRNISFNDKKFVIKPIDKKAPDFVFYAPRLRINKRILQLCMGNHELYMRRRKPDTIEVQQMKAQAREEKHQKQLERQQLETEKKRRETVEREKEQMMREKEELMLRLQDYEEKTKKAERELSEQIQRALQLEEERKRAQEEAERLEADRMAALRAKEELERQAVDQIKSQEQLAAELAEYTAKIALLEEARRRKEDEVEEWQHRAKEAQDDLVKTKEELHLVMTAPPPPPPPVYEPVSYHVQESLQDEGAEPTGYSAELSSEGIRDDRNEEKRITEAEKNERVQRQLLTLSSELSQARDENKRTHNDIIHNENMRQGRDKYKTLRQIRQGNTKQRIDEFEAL
UniProt P19634: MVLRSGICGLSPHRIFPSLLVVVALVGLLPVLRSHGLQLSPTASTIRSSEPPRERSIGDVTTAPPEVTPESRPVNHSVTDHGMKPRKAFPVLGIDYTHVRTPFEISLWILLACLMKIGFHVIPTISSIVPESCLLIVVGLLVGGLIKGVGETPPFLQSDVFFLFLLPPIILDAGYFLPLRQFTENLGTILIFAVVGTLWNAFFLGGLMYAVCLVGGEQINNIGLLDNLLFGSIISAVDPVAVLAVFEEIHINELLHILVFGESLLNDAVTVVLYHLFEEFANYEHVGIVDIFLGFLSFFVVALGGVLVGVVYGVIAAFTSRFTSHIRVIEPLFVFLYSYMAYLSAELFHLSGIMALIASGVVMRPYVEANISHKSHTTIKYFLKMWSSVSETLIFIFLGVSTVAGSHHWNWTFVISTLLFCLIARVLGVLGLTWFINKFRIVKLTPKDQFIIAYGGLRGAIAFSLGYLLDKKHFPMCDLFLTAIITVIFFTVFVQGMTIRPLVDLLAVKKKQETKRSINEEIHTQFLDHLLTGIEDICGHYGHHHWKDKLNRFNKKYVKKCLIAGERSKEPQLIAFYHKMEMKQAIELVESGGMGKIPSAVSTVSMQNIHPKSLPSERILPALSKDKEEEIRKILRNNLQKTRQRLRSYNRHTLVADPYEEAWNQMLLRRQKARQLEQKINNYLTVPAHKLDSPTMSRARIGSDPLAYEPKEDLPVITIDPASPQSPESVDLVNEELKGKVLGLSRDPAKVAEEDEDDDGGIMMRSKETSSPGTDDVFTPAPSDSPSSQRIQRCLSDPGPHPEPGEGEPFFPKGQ
UniProt Q13418: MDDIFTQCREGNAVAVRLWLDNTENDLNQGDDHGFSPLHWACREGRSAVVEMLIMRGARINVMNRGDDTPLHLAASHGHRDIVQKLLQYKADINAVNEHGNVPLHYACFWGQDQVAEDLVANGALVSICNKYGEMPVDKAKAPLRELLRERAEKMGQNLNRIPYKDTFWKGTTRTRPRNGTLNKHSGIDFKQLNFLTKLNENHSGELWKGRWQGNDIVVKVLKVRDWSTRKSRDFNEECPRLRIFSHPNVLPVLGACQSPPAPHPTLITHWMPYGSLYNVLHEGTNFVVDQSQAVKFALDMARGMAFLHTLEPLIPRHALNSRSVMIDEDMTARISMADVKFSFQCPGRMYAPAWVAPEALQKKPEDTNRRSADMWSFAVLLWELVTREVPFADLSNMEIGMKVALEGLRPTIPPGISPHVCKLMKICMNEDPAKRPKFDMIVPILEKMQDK

Key:
[1] = biological target: ezrin phosphorylated at T567 (human (endogenous in MDA-MB-231 and PC-3)) (UniProt P15311); assay: proximity ligation; in situ PLA (Duolink II Kit) of endogenous proteins in fixed MDA-MB-231 and PC-3 cells cultured 6 h on DQ Green-BSA Matrigel; detects interactions within 40 nm; read by epifluorescence and confocal microscopy
[2] = biological target: Na+/H+ exchanger type 1 (human (endogenous in MDA-MB-231 and PC-3)) (UniProt P19634); assay: as above

binding [1]: binds | binding [2]: binds
Substance: integrin-linked kinase (from UniProt Q13418 1-452)
